Consider one compound from patent publication US12605653B2, “Anionic switchable hydrophilicity solvents” (QUEEN'S UNIVERSITY AT KINGSTON, priority 2022, dated 2026).

This series in a line: Removal of motor oil from contaminated bottles with ASHS. The following applies: first cycle; 10 bar of CO2; 0.63 mol NaOH per mol EHA, 2.5 g water per g EHA.

Each structure is given as a SMILES string.

As for `CCCCC(CC)C(=O)O` (stereo not shown) [EHA, 2-ethylhexanoic acid], the “carboxylic acid recovered, of initial amount” value was determined as 73%.
